Assay results taken from patent US20260226101A1 (priority 2023, published 2026).
Ends that are not written are not given here.

Test: general procedure: Fmoc solid-phase peptide synthesis
Conditions: whole synthesis, 215 nm, scale of the general procedure 0.1-10 mmol, >10-200 mmol

FAKKFAK
final HPLC purity: 99.2%
